According to patent US20190010533A1, “METHODS FOR SCREENING AND SELECTING TARGET AGENTS FROM MOLECULAR DATABASES” (The Methodist Hospital System, priority 2017, published 2019):
For at least one compound, name, drawing or mass did not settle the structure.

What was measured:
[1] = system: insoluble p-tau species (pSer396/Ser404, pThr181); assay: Western blot analysis in 3D AD models with high Aβ42/40 ratios; assay type: cell-based, human; conditions: various concentrations
Description: FIG. 9. Validation of primary hit candidates. Primary hit candidates were confirmed using Western blot analysis (a) and quantitative immunofluorescence staining in 3D AD models with high Aβ42/40 ratios (#HReN and #A4H1) (b). PHF1 pSer396/Ser404 tau antibody was used to detect changes in phospho tau in 3D AD #HReN cells treated with DMSO vehicle, ebselen, or leflunomide.
In addition to MSD Mesoscale ELISA shown in FIG. 8, quantitative Western blot and immunofluorescence analysis were used to validate candidate drugs. […] Ebselen and leflunomide are compounds screened from original HCS screening of […] biologically active/FDA-approved drug library. […] Moreover, quantitative immunofluorescence staining was used to analyze p-tau changes after treating these compounds.

[2] = system: genes and pathways; assay: whole genome RNAseq analysis after compound treatment versus control; assay type: cell-based
Description: FIG. 10A-10B. […] PPI information was extracted from STRING database version 10.5 with the cutoff for confidence score at 0.4.
Given ebselen and leflunomide in FIG. 9, an unbiased whole genome RNAseq analysis was used to obtain transcriptomic profiles after the treatment of each compound and compare them separately to control conditions. For both treatments, a subset of genes and pathways show significant change (|log FC|>1.5) in the same direction over control condition. […] These 22 genes have 102 PPI pairs among them, and there are 7 genes directly connected to APP (coding Aβ) or MAPT (coding Tau).
It's worth noting that the enrichment of immune and inflammatory related pathway changes is consistent with the characteristics of the 3D cell model, as this system contains astrocytes, which is one of the brain innate immune cells. […] Also, neuroinflammatory pathways are highly unregulated in high Abeta42/40 lines (D4 and H10) as compared to A5 (similar to GA2) (data not shown).

With O=c1c2ccccc2[se]n1-c1ccccc1 [Ebselen] the “insoluble p-tau species (pSer396/Ser404, pThr181)” value [1] was “significantly decreased”, the “pathways changed after treatment” value ([2]; 5 of 6 pathways connected to 12 down-regulated genes) was “significantly down-regulated” and the “genes with significant change versus control” value ([2]; |log FC|>1.5, shared by both treatments) was 15 down-regulated and 7 up-regulated genes.
